Data from PMC10967477.
Results are given in words; binding and its absence hold for the method and conditions named. Binding seen in cells or lysates may run through a third protein. Some entries that bind do so weakly or less than the wild type.

T1: Src homology 3-binding protein 2 (SH3BP2) (human (endogenous in human podocytes)) (UniProt P78314)
T1 sequence: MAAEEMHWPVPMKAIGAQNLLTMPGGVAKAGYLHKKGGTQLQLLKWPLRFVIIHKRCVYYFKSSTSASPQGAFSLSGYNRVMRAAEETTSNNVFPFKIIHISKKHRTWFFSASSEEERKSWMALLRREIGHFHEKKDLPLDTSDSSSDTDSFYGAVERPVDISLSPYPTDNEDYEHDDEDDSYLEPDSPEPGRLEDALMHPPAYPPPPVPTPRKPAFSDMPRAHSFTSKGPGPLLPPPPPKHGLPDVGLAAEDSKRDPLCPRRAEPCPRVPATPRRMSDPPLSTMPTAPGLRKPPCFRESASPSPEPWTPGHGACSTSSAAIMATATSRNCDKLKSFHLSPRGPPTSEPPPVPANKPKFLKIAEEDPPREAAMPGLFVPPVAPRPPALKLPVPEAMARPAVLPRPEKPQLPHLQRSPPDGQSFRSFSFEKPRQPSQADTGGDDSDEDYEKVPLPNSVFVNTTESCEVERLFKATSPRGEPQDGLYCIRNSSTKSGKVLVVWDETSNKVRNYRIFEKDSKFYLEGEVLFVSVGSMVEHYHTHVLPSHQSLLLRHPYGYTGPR

T2: Rho-guanine nucleotide exchange factor VAV2 (VAV2) (human (endogenous in human podocytes)) (UniProt P52735)
T2 sequence: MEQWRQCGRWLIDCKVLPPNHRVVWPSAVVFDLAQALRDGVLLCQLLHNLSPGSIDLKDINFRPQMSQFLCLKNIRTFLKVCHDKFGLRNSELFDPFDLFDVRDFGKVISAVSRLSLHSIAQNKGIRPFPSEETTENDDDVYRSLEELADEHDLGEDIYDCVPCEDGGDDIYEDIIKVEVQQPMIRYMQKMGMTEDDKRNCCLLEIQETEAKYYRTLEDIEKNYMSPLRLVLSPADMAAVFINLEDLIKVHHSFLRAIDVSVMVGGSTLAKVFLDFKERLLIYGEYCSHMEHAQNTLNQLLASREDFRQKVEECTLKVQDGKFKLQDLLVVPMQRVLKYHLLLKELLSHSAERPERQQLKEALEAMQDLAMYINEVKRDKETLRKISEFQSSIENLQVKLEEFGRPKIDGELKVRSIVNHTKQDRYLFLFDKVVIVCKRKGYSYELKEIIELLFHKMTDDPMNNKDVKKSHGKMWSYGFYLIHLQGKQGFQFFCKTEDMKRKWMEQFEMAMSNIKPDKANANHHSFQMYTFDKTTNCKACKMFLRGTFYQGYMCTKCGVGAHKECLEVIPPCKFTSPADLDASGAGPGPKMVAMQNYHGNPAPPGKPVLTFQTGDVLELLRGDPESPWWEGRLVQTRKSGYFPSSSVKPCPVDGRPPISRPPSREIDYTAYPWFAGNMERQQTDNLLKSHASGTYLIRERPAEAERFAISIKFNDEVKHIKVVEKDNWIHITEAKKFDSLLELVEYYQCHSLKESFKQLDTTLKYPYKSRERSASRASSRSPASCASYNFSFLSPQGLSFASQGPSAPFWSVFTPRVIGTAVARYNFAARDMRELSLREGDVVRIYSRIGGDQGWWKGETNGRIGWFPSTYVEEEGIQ

T3: phospholipase Cγ2 (PLCγ2) (human (endogenous in human podocytes)) (UniProt P16885)
T3 sequence: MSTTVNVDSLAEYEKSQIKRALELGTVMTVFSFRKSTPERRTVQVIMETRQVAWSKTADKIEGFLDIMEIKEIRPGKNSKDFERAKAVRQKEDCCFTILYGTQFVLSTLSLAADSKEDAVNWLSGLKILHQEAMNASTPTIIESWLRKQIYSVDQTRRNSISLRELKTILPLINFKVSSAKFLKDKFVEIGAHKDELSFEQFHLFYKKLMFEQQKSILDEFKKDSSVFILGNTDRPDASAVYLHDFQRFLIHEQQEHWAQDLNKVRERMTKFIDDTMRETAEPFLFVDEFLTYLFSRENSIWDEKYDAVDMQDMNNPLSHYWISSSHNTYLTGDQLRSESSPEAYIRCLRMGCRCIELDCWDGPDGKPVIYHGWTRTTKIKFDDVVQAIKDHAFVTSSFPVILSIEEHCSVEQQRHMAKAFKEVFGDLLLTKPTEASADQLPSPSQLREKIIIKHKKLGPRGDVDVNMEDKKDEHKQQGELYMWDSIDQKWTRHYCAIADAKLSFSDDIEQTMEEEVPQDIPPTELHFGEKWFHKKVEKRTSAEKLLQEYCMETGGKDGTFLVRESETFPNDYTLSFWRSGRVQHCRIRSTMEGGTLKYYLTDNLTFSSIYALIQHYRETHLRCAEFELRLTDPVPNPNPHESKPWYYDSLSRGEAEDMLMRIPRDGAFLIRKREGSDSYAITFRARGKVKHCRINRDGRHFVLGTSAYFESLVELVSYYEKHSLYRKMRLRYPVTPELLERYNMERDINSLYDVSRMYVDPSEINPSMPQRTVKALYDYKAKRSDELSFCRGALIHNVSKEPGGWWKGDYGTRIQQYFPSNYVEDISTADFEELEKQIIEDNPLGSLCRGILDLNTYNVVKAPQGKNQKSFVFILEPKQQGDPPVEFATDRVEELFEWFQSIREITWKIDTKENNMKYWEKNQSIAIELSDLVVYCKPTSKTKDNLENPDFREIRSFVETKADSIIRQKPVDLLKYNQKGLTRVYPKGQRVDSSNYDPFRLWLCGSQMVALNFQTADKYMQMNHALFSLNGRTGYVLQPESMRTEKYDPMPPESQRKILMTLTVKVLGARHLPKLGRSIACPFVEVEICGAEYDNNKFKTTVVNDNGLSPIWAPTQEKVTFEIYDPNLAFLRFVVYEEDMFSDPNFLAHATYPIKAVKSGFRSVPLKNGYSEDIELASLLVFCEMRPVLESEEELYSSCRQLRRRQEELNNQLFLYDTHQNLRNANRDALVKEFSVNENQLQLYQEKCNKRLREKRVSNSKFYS


Assays:
Test in all cases: co-IP; endogenous proteins in total protein lysate of untreated (unstimulated) human podocytes; immunoprecipitation with antibodies against SH3BP2, VAV2 or PLCγ2, followed by Western blotting for each protein
[1] = target: T1, Src homology 3-binding protein 2 (SH3BP2) (human (endogenous in human podocytes))
[2] = target: T2, Rho-guanine nucleotide exchange factor VAV2 (VAV2) (human (endogenous in human podocytes))
[3] = target: T3, phospholipase Cγ2 (PLCγ2) (human (endogenous in human podocytes))

Binder	binding [1]	binding [2]	binding [3]
phospholipase Cγ2 (PLCγ2) (protein, UniProt P16885 1-1265) MSTTVNVDSLAEYEKSQIKRALELGTVMTVFSFRKSTPERRTVQVIMETRQVAWSKTADKIEGFLDIMEIKEIRPGKNSKDFERAKAVRQKEDCCFTILYGTQFVLSTLSLAADSKEDAVNWLSGLKILHQEAMNASTPTIIESWLRKQIYSVDQTRRNSISLRELKTILPLINFKVSSAKFLKDKFVEIGAHKDELSFEQFHLFYKKLMFEQQKSILDEFKKDSSVFILGNTDRPDASAVYLHDFQRFLIHEQQEHWAQDLNKVRERMTKFIDDTMRETAEPFLFVDEFLTYLFSRENSIWDEKYDAVDMQDMNNPLSHYWISSSHNTYLTGDQLRSESSPEAYIRCLRMGCRCIELDCWDGPDGKPVIYHGWTRTTKIKFDDVVQAIKDHAFVTSSFPVILSIEEHCSVEQQRHMAKAFKEVFGDLLLTKPTEASADQLPSPSQLREKIIIKHKKLGPRGDVDVNMEDKKDEHKQQGELYMWDSIDQKWTRHYCAIADAKLSFSDDIEQTMEEEVPQDIPPTELHFGEKWFHKKVEKRTSAEKLLQEYCMETGGKDGTFLVRESETFPNDYTLSFWRSGRVQHCRIRSTMEGGTLKYYLTDNLTFSSIYALIQHYRETHLRCAEFELRLTDPVPNPNPHESKPWYYDSLSRGEAEDMLMRIPRDGAFLIRKREGSDSYAITFRARGKVKHCRINRDGRHFVLGTSAYFESLVELVSYYEKHSLYRKMRLRYPVTPELLERYNMERDINSLYDVSRMYVDPSEINPSMPQRTVKALYDYKAKRSDELSFCRGALIHNVSKEPGGWWKGDYGTRIQQYFPSNYVEDISTADFEELEKQIIEDNPLGSLCRGILDLNTYNVVKAPQGKNQKSFVFILEPKQQGDPPVEFATDRVEELFEWFQSIREITWKIDTKENNMKYWEKNQSIAIELSDLVVYCKPTSKTKDNLENPDFREIRSFVETKADSIIRQKPVDLLKYNQKGLTRVYPKGQRVDSSNYDPFRLWLCGSQMVALNFQTADKYMQMNHALFSLNGRTGYVLQPESMRTEKYDPMPPESQRKILMTLTVKVLGARHLPKLGRSIACPFVEVEICGAEYDNNKFKTTVVNDNGLSPIWAPTQEKVTFEIYDPNLAFLRFVVYEEDMFSDPNFLAHATYPIKAVKSGFRSVPLKNGYSEDIELASLLVFCEMRPVLESEEELYSSCRQLRRRQEELNNQLFLYDTHQNLRNANRDALVKEFSVNENQLQLYQEKCNKRLREKRVSNSKFYS	binds	binds	–
Rho-guanine nucleotide exchange factor VAV2 (VAV2) (protein, UniProt P52735 1-878) MEQWRQCGRWLIDCKVLPPNHRVVWPSAVVFDLAQALRDGVLLCQLLHNLSPGSIDLKDINFRPQMSQFLCLKNIRTFLKVCHDKFGLRNSELFDPFDLFDVRDFGKVISAVSRLSLHSIAQNKGIRPFPSEETTENDDDVYRSLEELADEHDLGEDIYDCVPCEDGGDDIYEDIIKVEVQQPMIRYMQKMGMTEDDKRNCCLLEIQETEAKYYRTLEDIEKNYMSPLRLVLSPADMAAVFINLEDLIKVHHSFLRAIDVSVMVGGSTLAKVFLDFKERLLIYGEYCSHMEHAQNTLNQLLASREDFRQKVEECTLKVQDGKFKLQDLLVVPMQRVLKYHLLLKELLSHSAERPERQQLKEALEAMQDLAMYINEVKRDKETLRKISEFQSSIENLQVKLEEFGRPKIDGELKVRSIVNHTKQDRYLFLFDKVVIVCKRKGYSYELKEIIELLFHKMTDDPMNNKDVKKSHGKMWSYGFYLIHLQGKQGFQFFCKTEDMKRKWMEQFEMAMSNIKPDKANANHHSFQMYTFDKTTNCKACKMFLRGTFYQGYMCTKCGVGAHKECLEVIPPCKFTSPADLDASGAGPGPKMVAMQNYHGNPAPPGKPVLTFQTGDVLELLRGDPESPWWEGRLVQTRKSGYFPSSSVKPCPVDGRPPISRPPSREIDYTAYPWFAGNMERQQTDNLLKSHASGTYLIRERPAEAERFAISIKFNDEVKHIKVVEKDNWIHITEAKKFDSLLELVEYYQCHSLKESFKQLDTTLKYPYKSRERSASRASSRSPASCASYNFSFLSPQGLSFASQGPSAPFWSVFTPRVIGTAVARYNFAARDMRELSLREGDVVRIYSRIGGDQGWWKGETNGRIGWFPSTYVEEEGIQ	binds	–	binds
Src homology 3-binding protein 2 (SH3BP2) (protein, UniProt P78314 1-561) MAAEEMHWPVPMKAIGAQNLLTMPGGVAKAGYLHKKGGTQLQLLKWPLRFVIIHKRCVYYFKSSTSASPQGAFSLSGYNRVMRAAEETTSNNVFPFKIIHISKKHRTWFFSASSEEERKSWMALLRREIGHFHEKKDLPLDTSDSSSDTDSFYGAVERPVDISLSPYPTDNEDYEHDDEDDSYLEPDSPEPGRLEDALMHPPAYPPPPVPTPRKPAFSDMPRAHSFTSKGPGPLLPPPPPKHGLPDVGLAAEDSKRDPLCPRRAEPCPRVPATPRRMSDPPLSTMPTAPGLRKPPCFRESASPSPEPWTPGHGACSTSSAAIMATATSRNCDKLKSFHLSPRGPPTSEPPPVPANKPKFLKIAEEDPPREAAMPGLFVPPVAPRPPALKLPVPEAMARPAVLPRPEKPQLPHLQRSPPDGQSFRSFSFEKPRQPSQADTGGDDSDEDYEKVPLPNSVFVNTTESCEVERLFKATSPRGEPQDGLYCIRNSSTKSGKVLVVWDETSNKVRNYRIFEKDSKFYLEGEVLFVSVGSMVEHYHTHVLPSHQSLLLRHPYGYTGPR	–	binds	binds
